# Primary screen of a compound library

A: 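Cell assay of Leishmania donovani living inside macrophages; the read-out is not stated. Concentration: 30 µM. Higher reads as stronger inhibition (inferred: compounds with an IC50 in retests scored well above the rest). Size under these conditions: about 69,000 compounds, about 1,000 of them at 50% or above in at least one test.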
B: 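Assay of Toxoplasma gondii numbers, read through their beta-galactosidase reporter with a colour substrate. Tested at 10 µM. The record gives no direction; the compounds picked for IC50 retests had high values, so higher reads as fewer parasites. Size under these conditions: about 67,000 compounds, about 260 of them at 50% or above in at least one test.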

Results are given as percent effect.
How 0% and 100% were set is not recorded. Most values in the screen are low, and negative values occur.
This is an unselected part of the compounds tested.
Two or more numbers in one place are separate tests of the same structure; such repeats can differ widely.

Cn1cc(CN(C(=O)c2ccc(O)c(Cl)c2)C2CC2)cn1 read A: 22.69%; B: -12.14%. Cc1cc2c(c(-c3c[nH]c(C)n3)c1)OC(CN)C2 (stereo unspecified) gave A: 38.87%; B: 9.017%. With O=C(O)C(F)(F)F.[H][C@@]12CN(Cc3cnn(C)c3)C[C@]1([H])C(=O)N(c1cncnc1)C2 the screen gave A: 5.445%; B: 5.485%. Cc1cccc(CN2Cc3[nH]nc(COc4cccnc4)c3C2)n1.O=C(O)C(F)(F)F.O=C(O)C(F)(F)F.O=C(O)C(F)(F)F gave A: -0.6347% and 4.868%; B: -0.8189%. With O=C(O)C(F)(F)F.O=C(O)C(F)(F)F.c1nc2n(c1CN1CCCCC1)CCN(C1CCOC1)CC2 (stereo unspecified) the screen gave A: 7.139%; B: 12.11%. With c1cnnc(N2CCCC(NCc3nc(-c4cccs4)no3)C2)c1 (stereo unspecified) the screen gave A: 13.65%; B: -0.3277%. Cc1nc(CNC(C)c2cccc(S(=O)(=O)N(C)C)c2)no1 (stereo unspecified) gave A: 18.75%; B: 0.3544%.

COc1cccc2c1N(Cc1noc(C3CC3)n1)CCC2 read A: -2.957%; B: -85.16%. O=c1cc(Cn2cncn2)nc2n1CCCN(Cc1ccsc1)C2 read A: -11.2%; B: -0.1918%. Result for CN(Cc1csc(-c2cccs2)n1)CC(O)CO (stereo unspecified) was A: 9.629%; B: -37.25%. With CNC(=O)CN(C)Cc1ccc(F)cc1Cl the screen gave A: 23.14%; B: 2.831%. O=C1CCCN1CC1CCCCN1C(=O)Nc1cccc(F)c1 (stereo unspecified) gave A: 16.66%; B: 4.442%. Cc1ccc(C)c(-n2cc(CN3CCOCC3)c(-c3ccccc3)n2)c1 read A: 0.2281%; B: 0.5691%. For CN1CCOC(C(=O)N2CCOC3(CCCC3)C2)C1 (stereo unspecified) the result was A: 24.84%; B: -2.31%.

Result for Cc1cc(C)n(NC(=O)c2ccc(Cl)cc2Cl)c(=O)c1 was A: 11.95%; B: 16.48%. CN(Cc1nc2ccccc2[nH]1)C(=O)CN(C)c1ccccc1 gave A: 38.52%; B: 3.738%. COCc1nn(Cc2ccc(Br)s2)c(=O)o1 read A: -61.98%; B: -4.106%. CN(C)C(=O)CO[C@H]1CO[C@@]2(CCN(S(C)(=O)=O)C2)C1 gave A: 31.91%; B: -13.27%. With CN(C)c1ncc2c(n1)C1(CCN(CC3CC3)C1)COC2.O=C(O)C(F)(F)F (stereo unspecified) the screen gave A: -0.3907%; B: -3.49%. For CN(CC1(O)CCCCC1)C1CCCN(Cc2noc(C3CC3)n2)C1 (stereo unspecified) the result was A: 21.99%; B: -0.6905%. N#Cc1ncn(CCC(=O)Nc2ccc(Cl)cc2F)n1 gave A: 30.62%; B: 12.48%.

For O=C(O)C(F)(F)F.[H][C@@]12OCCN(C(=O)c3ccoc3C)[C@@]1([H])CC[C@@H]2Oc1ccccn1 the result was A: -6.521%; B: -4.16%. With Cc1nc(CN2CCN(CCCc3nc4ccccc4o3)CC2)no1 the screen gave A: 7.396%; B: -6.242%. COCC(=O)N1CCC2(CC1)C(=O)N(Cc1cccnc1)CCN2C.O=C(O)C(F)(F)F.O=C(O)C(F)(F)F read A: -15.23%; B: -14.31%. Result for Cc1ncccc1Oc1ncnc(N2CCC3(CCCO3)CC2)c1C was A: 34.09%; B: -8.506%. CCN1CCOCC12CCN(c1nccs1)CC2.O=C(O)C(F)(F)F read A: 34.71%; B: -8.58%. Result for O=C(c1sccc1-n1cnnn1)N1CCC2(CCCCC2)CC1 was A: -10.08%; B: 2.754%. Result for COc1cn(CC(N)=O)c(CSc2nccc(C)n2)cc1=O was A: 15.48%; B: 21.93%.

With CN(C)CCN1CCCC12CCN(C(=O)c1cccnc1)CC2.O=C(O)C(F)(F)F.O=C(O)C(F)(F)F the screen gave A: -0.4237%; B: 1.584%.

For reference, 3 entries once more:

Compound	A	B
Cc1ccc(C)c(-n2cc(CN3CCOCC3)c(-c3ccccc3)n2)c1	0.2281	0.5691
CN(Cc1csc(-c2cccs2)n1)CC(O)CO (stereo unspecified)	9.629	-37.25
COc1cn(CC(N)=O)c(CSc2nccc(C)n2)cc1=O	15.48	21.93

From ChEMBL document CHEMBL3988442, “University of Dundee, Small-Polar-MMV Screening Library” (2021).